PubChem BioAssay AID504808, Drosophila RNAi Screening Center, 2011
In all, the deposit lists about 21,000 reagents; below is a random part of those with a known target gene and a result. Over the whole deposit, 18 (0.084%) are marked active. 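Raw counts without plate normalisation, one of two replicates; the ratio scores behind the calls were not deposited.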 A plus sign joins genes that one reagent is predicted to hit. Not stated in the record: the amount of reagent, the time to read-out.

Assay: 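Chromatin factors that keep E2F targets switched off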 (primary screen)
Cell system: Drosophila S2 cells
Knock-down reagent: long dsRNA against Drosophila genes
Measurement: 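Dual luciferase plate measurements; E2F-specific signal taken as firefly over Renilla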
Scale: E2F firefly: higher = more E2F reporter activity; Renilla normaliser: higher = more normaliser reporter signal
Rule for the call: 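Called active if the normalised E2F reporter went up by over 50%; the cutoff is arbitrary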

gene | amplicon | E2F firefly, rep 1 | Renilla normaliser, rep 1 | call
VAChT + ChAT | DRSC13312 | 80604 | 2472 | inactive
hep | DRSC19839 | 73020 | 4855 | inactive
hep | DRSC20337 | 62223 | 4611 | inactive
gskt | DRSC14056 | 80059 | 2473 | inactive
asp | DRSC16903 | 71706 | 3199 | inactive
CG17377 | DRSC00950 | 1.37e5 | 5645 | inactive
CG17377 | DRSC02615 | 93393 | 3575 | inactive
Est-P | DRSC11163 | 1.40e5 | 7358 | inactive
CG3701 (retired record) | DRSC04408 | 97478 | 4496 | inactive
CG3701 (retired record) | DRSC04409 | 1.13e5 | 4454 | inactive
CG32428 | DRSC11697 | 69230 | 3223 | inactive
CG32428 | DRSC11768 | 1.40e5 | 6589 | inactive
Cpsf73 | DRSC16291 | 1.31e5 | 5935 | inactive
Chc | DRSC20229 | 7578 | 728 | inactive
CG46301 | DRSC01916 | 96100 | 4181 | inactive
Vps51 | DRSC06519 | 74794 | 3862 | inactive
CG4324 | DRSC04462 | 1.18e5 | 4263 | inactive
Jheh2 | DRSC06530 | 1.58e5 | 4879 | inactive
CycJ | DRSC08653 | 68470 | 3340 | inactive
CG32694 | DRSC17844 | 1.08e5 | 5544 | inactive
CG32694 | DRSC17855 | 1.05e5 | 5319 | inactive
sofe | DRSC19751 | 7855 | 736 | inactive
beat-IIIa | DRSC01575 | 1.40e5 | 5847 | inactive
beat-IIIa | DRSC01577 | 1.40e5 | 6133 | inactive
beat-IIIa | DRSC02178 | 1.09e5 | 4924 | inactive
Nup93-1 | DRSC19344 | 6791 | 676 | inactive
CG13877 + pyx | DRSC08347 | 1.03e5 | 4312 | inactive
CG5653 | DRSC10534 | 91762 | 3628 | inactive
Fas2 | DRSC17308 | 92839 | 2604 | inactive
Fas2 | DRSC17309 | 86257 | 2768 | inactive
Fas2 | DRSC18664 | 1903 | 940 | inactive
Gas41 | DRSC03156 | 82005 | 3851 | inactive
Cyp310a1 | DRSC03301 | 83082 | 4177 | inactive
su(Hw) | DRSC17074 | 69601 | 3510 | inactive

3 entries from above, arranged by “E2F firefly, rep 1”, lowest first.
gene | amplicon | E2F firefly, rep 1 | Renilla normaliser, rep 1 | call
Chc | DRSC20229 | 7578 | 728 | inactive
Cpsf73 | DRSC16291 | 1.31e5 | 5935 | inactive
CG32428 | DRSC11768 | 1.40e5 | 6589 | inactive
